Binding data for three substances are collected here from paper PMC8468037.

By UniProt entry, the sequences of proteins in these tests, tags left out. Where a name states a change or a piece, a line headed by the entry shows the natural chain unless it says otherwise. Chains listed by the source or under a name are the forms on record and can include a tag or linker. Residues count along the entry.
Human angiogenin, wild type (P03950, residues 25-147): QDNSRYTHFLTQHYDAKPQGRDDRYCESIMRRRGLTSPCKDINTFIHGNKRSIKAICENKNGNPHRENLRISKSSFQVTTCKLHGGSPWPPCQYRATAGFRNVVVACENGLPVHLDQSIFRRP
H13A-ANG (human angiogenin variant H13A) (P03950, form named): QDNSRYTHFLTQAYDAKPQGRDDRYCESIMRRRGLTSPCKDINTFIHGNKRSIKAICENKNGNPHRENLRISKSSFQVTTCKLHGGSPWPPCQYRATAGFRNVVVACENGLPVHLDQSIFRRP
R121C-ANG (human angiogenin variant R121C) (P03950, form named): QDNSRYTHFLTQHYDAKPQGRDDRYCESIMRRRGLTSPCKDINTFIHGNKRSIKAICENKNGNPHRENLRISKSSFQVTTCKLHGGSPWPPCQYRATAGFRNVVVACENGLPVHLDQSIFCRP

The target in assay [1] is H13A-ANG (human angiogenin variant H13A) (human) (UniProt P03950). The experiment in a line: SEC; protein lyophilized from 40% HAc, powder solubilized in ddH2O without NaPi; Superdex 75 Increase 10/300 in 0.40 M NaPi, pH 6.7; both purified.
For assay [2] the target is unchanged. The experiment in a line: SEC; powder lyophilized from ddH2O dissolved directly in 0.40 M NaPi, pH 6.7, without HAc lyophilization; Superdex 75 Increase 10/300 in 0.40 M NaPi, pH 6.7; both purified.
Assay [3] has the same target. The experiment in a line: SEC; protein lyophilized from 40% HAc (about 25 mg/mL), powder solubilized in 0.40 M NaPi, pH 6.7; Superdex 75 Increase 10/300 in 0.40 M NaPi, pH 6.7; dimer extent = peak area vs. total area eluted; both purified. On the technique in general: Size exclusion chromatography separates by hydrodynamic size, large species first.
Assay [4] deals with Human angiogenin, wild type (human) (UniProt P03950). The experiment in a line: condition: only without previous HAc lyophilization; SEC; powder lyophilized from ddH2O dissolved directly in 0.40 M NaPi, pH 6.7, without HAc lyophilization; Superdex 75 Increase 10/300 in 0.40 M NaPi, pH 6.7; both purified.
Assay [5] has the same target. The experiment in a line: condition: only HAc-lyophilized powder dissolved in ddH2O lacking NaPi buffer; SEC; protein lyophilized from 40% HAc, powder solubilized in ddH2O without NaPi; Superdex 75 Increase 10/300 in 0.40 M NaPi, pH 6.7; both purified.
The target in assay [6] is R121C-ANG (human angiogenin variant R121C) (human) (UniProt P03950). The experiment in a line: condition: only without previous HAc lyophilization; SEC; powder lyophilized from ddH2O dissolved directly in 0.40 M NaPi, pH 6.7, without HAc lyophilization; Superdex 75 Increase 10/300 in 0.40 M NaPi, pH 6.7; both purified.
The target is the same in assay [7]. The experiment in a line: condition: only HAc-lyophilized powder dissolved in ddH2O lacking NaPi buffer; SEC; protein lyophilized from 40% HAc, powder solubilized in ddH2O without NaPi; Superdex 75 Increase 10/300 in 0.40 M NaPi, pH 6.7; both purified.

No constants are given. Whether binding was seen depends on the method and setting.

Take “H13A-ANG (human angiogenin variant H13A) (from UniProt P03950 25-147) (enzyme)”: the binding entry in assay [1], in assay [2] and in assay [3] was “no binding” each time.
For the substance “Human angiogenin, wild type (from UniProt P03950 25-147) (enzyme)”, the binding entry in assay [4] and in assay [5] was “no binding” throughout.
For the substance “R121C-ANG (human angiogenin variant R121C) (from UniProt P03950 25-147) (enzyme)”, the binding entry in assay [6] and in assay [7] was “no binding” in each case.
